Test results reported in paper PMC4737164, “DNA recognition for virus assembly through multiple sequence-independent interactions with a helix-turn-helix motif”.
Weaker means in comparison with the reference protein, sequence or condition of that experiment. For at least one entry, the source does not settle the construct or the ends of the probe. At least one verdict was read from the data and is not stated in words by the source.

Target: SF6 small terminase (GP1) DBD wild type (Bacillus phage SF6) (UniProt P68928)
Assay: SPR
Conditions: 20 mM HEPES, 150 mM KCl (300 mM in second ReDCaT), pH 7.0, +0.05% Tween 20 for SPR, ReDCaT 20 uM protein, AUC 20 C, recombinant protein, residues 1-68, protein details: C-terminal 3C site-His tag, cleaved, label: 5'-biotin strand 3
[1] = 300 mM KCl, no significant effect vs P14
[2] = 300 mM KCl, no increase vs P8, P9

| Sequence | binding result (150 mM KCl) | further results |
| --- | --- | --- |
| ATTAGGTTTATATAAGGTTTTAATTAGGTT / AACCTAATTAAAACCTTATATAAACCTAATCCTACCCTACGTCCTCCTGC / GCAGGAGGACGTAGGGTAGG [F3 (S3)] | binds | – |
| TATAGTAAAAATTCCGCGTCTGCTATTGGG / CCCAATAGCAGACGCGGAATTTTTACTATACCTACCCTACGTCCTCCTGC / GCAGGAGGACGTAGGGTAGG [F9 (S9)] | binds | – |
| CCAAAACAGGAAAGATTTATTGAAGAGTAT / ATACTCTTCAATAAATCTTTCCTGTTTTGGCCTACCCTACGTCCTCCTGC / GCAGGAGGACGTAGGGTAGG [F6 (S6)] | binds | – |
| TTGCGGCCGAGAACATGCAAAAACCGCACGTCCG / CGGACGTGCGGTTTTTGCATGTTCTCGGCCGCAACCTACCCTACGTCCTCCTGC / GCAGGAGGACGTAGGGTAGG [P14_L] | – | binding result (300 mM KCl, parent of P14 series): binds more weakly |
| TAAAAAGTCTGCTTCGACTATTGCGGCCGA / TCGGCCGCAATAGTCGAAGCAGACTTTTTACCTACCCTACGTCCTCCTGC / GCAGGAGGACGTAGGGTAGG [P13 (boxB)] | binds | binding result (300 mM KCl, not elevated): binds more weakly |
| TTGGGGCCGAGAACATGCAGAAACCGCACGTCCG / CGGACGTGCGGTTTCTGCATGTTCTCGGCCCCAACCTACCCTACGTCCTCCTGC / GCAGGAGGACGTAGGGTAGG [C4G (cumulative)] | – | binding result [1]: binds more weakly |
| TTGGGGCAGAAAACTTGCAGAAACCGCACGTCCG / CGGACGTGCGGTTTCTGCAAGTTTTCTGCCCCAACCTACCCTACGTCCTCCTGC / GCAGGAGGACGTAGGGTAGG [A15T (cumulative)] | – | binding result [1]: binds more weakly |
| GCCGAGAACATGCAAAAACCGCACGTCCGC / GCGGACGTGCGGTTTTTGCATGTTCTCGGCCCTACCCTACGTCCTCCTGC / GCAGGAGGACGTAGGGTAGG [P14 (boxC)] | binds | binding result (300 mM KCl, not elevated): binds more weakly |
| TTTTATGAAAGAACCTAAACTATCTCCAAA / TTTGGAGATAGTTTAGGTTCTTTCATAAAACCTACCCTACGTCCTCCTGC / GCAGGAGGACGTAGGGTAGG [F5 (S5)] | binds | – |
| TCCGCGCACGTATCGAGGAAAGATTGGCAC / GTGCCAATCTTTCCTCGATACGTGCGCGGACCTACCCTACGTCCTCCTGC / GCAGGAGGACGTAGGGTAGG [P15 (boxC)] | binds | binding result (300 mM KCl, not elevated): binds more weakly |
| TTTCTATGGGAGAAGTAAAGGGGAAATGGACGCCCAA / TTGGGCGTCCATTTCCCCTTTACTTCTCCCATAGAAACCTACCCTACGTCCTCCTGC / GCAGGAGGACGTAGGGTAGG [P8_P9] | – | binding result [2]: binds more weakly |
| AGCTATCCGCGCACGTATTGACGCTCGTTT / AAACGAGCGTCAATACGTGCGCGGATAGCTCCTACCCTACGTCCTCCTGC / GCAGGAGGACGTAGGGTAGG [F11 (S11, boxC)] | binds | binding result (300 mM KCl, not elevated): binds more weakly |
| TTCAGATATGAGGTTCAAATATAGTTTTAA / TTAAAACTATATTTGAACCTCATATCTGAACCTACCCTACGTCCTCCTGC / GCAGGAGGACGTAGGGTAGG [P7] | binds | – |
| GGAAAAGGAACAGGTGCTCATGGGAATTGG / CCAATTCCCATGAGCACCTGTTCCTTTTCCCCTACCCTACGTCCTCCTGC / GCAGGAGGACGTAGGGTAGG [F16 (S16)] | binds | – |
| AAATCCTCCAAGCTAACGAGGTTTTGGAGC / GCTCCAAAACCTCGTTAGCTTGGAGGATTTCCTACCCTACGTCCTCCTGC / GCAGGAGGACGTAGGGTAGG [F13 (S13)] | binds | – |
| TTGGGGCCGAAAACATGCAGAAACCGCACGTCCG / CGGACGTGCGGTTTCTGCATGTTTTCGGCCCCAACCTACCCTACGTCCTCCTGC / GCAGGAGGACGTAGGGTAGG [G11A (cumulative)] | – | binding result [1]: binds more weakly |
| CGTTTGAAGGAAATAAACGAGAAGAAAATC / GATTTTCTTCTCGTTTATTTCCTTCAAACGCCTACCCTACGTCCTCCTGC / GCAGGAGGACGTAGGGTAGG [F12 (S12)] | binds | – |
| GGCGGAATAACACAGAGAGGTACCCTATTT / AAATAGGGTACCTCTCTGTGTTATTCCGCCCCTACCCTACGTCCTCCTGC / GCAGGAGGACGTAGGGTAGG [F1 (S1)] | binds | – |
| TTGGGGCAGAAAACTTACAGAAACCAGCTA / TAGCTGGTTTCTGTAAGTTTTCTGCCCCAACCTACCCTACGTCCTCCTGC / GCAGGAGGACGTAGGGTAGG [F10 (S10)] | binds | – |
| GGCCAGGAAAAGGAACAGGTGCTCATGGGA / TCCCATGAGCACCTGTTCCTTTTCCTGGCCCCTACCCTACGTCCTCCTGC / GCAGGAGGACGTAGGGTAGG [F15 (S15)] | binds | – |

| Sequence | binding result (150 mM KCl) | further results |
| --- | --- | --- |
| AAAAGCGGCGGTTATATCTTGTAGCGTAGA / TCTACGCTACAAGATATAACCGCCGCTTTTCCTACCCTACGTCCTCCTGC / GCAGGAGGACGTAGGGTAGG [P2] | binds | – |
| AGTATTTTATAAACGACATGAACGCTACTA / TAGTAGCGTTCATGTCGTTTATAAAATACTCCTACCCTACGTCCTCCTGC / GCAGGAGGACGTAGGGTAGG [F7 (S7)] | binds | – |
| TACTAAAGCGGCTATTGCGGCAGGATATAG / CTATATCCTGCCGCAATAGCCGCTTTAGTACCTACCCTACGTCCTCCTGC / GCAGGAGGACGTAGGGTAGG [F8 (S8, boxB)] | binds | binding result (300 mM KCl, not elevated): binds more weakly |
| TATTTGGGTGCTTTTTTGTTGTATAATTAG / CTAATTATACAACAAAAAAGCACCCAAATACCTACCCTACGTCCTCCTGC / GCAGGAGGACGTAGGGTAGG [F2 (S2), same sequence as P5] | binds | binding result (300 mM KCl, not elevated): binds more weakly |
| TATTTGGGTGCTTTTTTGTTGTATAATTAG / CTAATTATACAACAAAAAAGCACCCAAATACCTACCCTACGTCCTCCTGC / GCAGGAGGACGTAGGGTAGG [P5] | binds | – |
| AGGTTCAAATATAGTTAGGAGGGGATTTTA / TAAAATCCCCTCCTAACTATATTTGAACCTCCTACCCTACGTCCTCCTGC / GCAGGAGGACGTAGGGTAGG [F4 (S4)] | binds | – |
| AGATTGGCACAAATGGACAAGAAAAGAATC / GATTCTTTTCTTGTCCATTTGTGCCAATCTCCTACCCTACGTCCTCCTGC / GCAGGAGGACGTAGGGTAGG [P16] | binds | – |
| TTTAAGGAGGTTTTTTCTATGGGAGAAGTA / TACTTCTCCCATAGAAAAAACCTCCTTAAACCTACCCTACGTCCTCCTGC / GCAGGAGGACGTAGGGTAGG [P8] | binds | binding result (300 mM KCl, average density): binds more weakly |
| CCGGCTGATGTTTTGAAAGAAGCGAAAAAG / CTTTTTCGCTTCTTTCAAAACATCAGCCGGCCTACCCTACGTCCTCCTGC / GCAGGAGGACGTAGGGTAGG [P1] | binds | – |
| GGCGGAATAACACAGAGAGGCACCCTATTT / AAATAGGGTGCCTCTCTGTGTTATTCCGCCCCTACCCTACGTCCTCCTGC / GCAGGAGGACGTAGGGTAGG [P4] | binds | – |
| TTTTATGAAAGAAGGGGAAATGGACGCCCAAA / TTTGGGCGTCCATTTCCCCTTCTTTCATAAAACCTACCCTACGTCCTCCTGC / GCAGGAGGACGTAGGGTAGG [F5_P9] | – | binding result [2]: binds more weakly |
| TTGGGGCAGAAAACTTACAGAAACCGCACGTCCG / CGGACGTGCGGTTTCTGTAAGTTTTCTGCCCCAACCTACCCTACGTCCTCCTGC / GCAGGAGGACGTAGGGTAGG [G17A (cumulative)] | – | binding result [1]: binds more weakly |
| AAGTAAAGGGGAAATGGACGCCCAAACTCG / CGAGTTTGGGCGTCCATTTCCCCTTTACTTCCTACCCTACGTCCTCCTGC / GCAGGAGGACGTAGGGTAGG [P9] | binds | binding result (300 mM KCl, average density): binds more weakly |
| GTAGAATGTTATAATGGATTTAATTGGCGG / CCGCCAATTAAATCCATTATAACATTCTACCCTACCCTACGTCCTCCTGC / GCAGGAGGACGTAGGGTAGG [P3] | binds | – |
| TTGCGGCCGAGAACATGCAGAAACCGCACGTCCG / CGGACGTGCGGTTTCTGCATGTTCTCGGCCGCAACCTACCCTACGTCCTCCTGC / GCAGGAGGACGTAGGGTAGG [A20G] | – | binding result [1]: binds more weakly |
| GGAGCATTTGACTCGCATTGCACTCGGCCA / TGGCCGAGTGCAATGCGAGTCAAATGCTCCCCTACCCTACGTCCTCCTGC / GCAGGAGGACGTAGGGTAGG [F14 (S14)] | binds | – |
| AAGCGGCTATTGCGGCTGGTTATAGTAAAA / TTTTACTATAACCAGCCGCAATAGCCGCTTCCTACCCTACGTCCTCCTGC / GCAGGAGGACGTAGGGTAGG [P12 (boxB)] | binds | binding result (300 mM KCl, not elevated): binds more weakly |
| ACTCGAAAGATTTGTTGATGAATATTTCAT / ATGAAATATTCATCAACAAATCTTTCGAGTCCTACCCTACGTCCTCCTGC / GCAGGAGGACGTAGGGTAGG [P10] | binds | – |
| TTCATAAACGGCATGAATGCAACAAAAGCG / CGCTTTTGTTGCATTCATGCCGTTTATGAACCTACCCTACGTCCTCCTGC / GCAGGAGGACGTAGGGTAGG [P11] | binds | – |
